PubChem BioAssay AID1259405 – NCATS – 2018

Assay: 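Knock-downs that lift recombinant protein yield in hamster ovary cells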 (primary screen)
Cells: Chinese hamster CHO-K1 ovary cells with stable secreted eGFP expression
Knock-down reagent: single siRNA against mouse genes, 0.8 pmol siRNA per well (2 µl of 400 nM stock)
Time to read-out: 3 days
Detection: 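Percent of the per-plate non-targeting control median for intracellular GFP per well by laser scanning cytometry and for cell viability by ATP luminescence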
Scale: GFP, % of control: higher = more GFP per well, higher productivity; viability (ATP), % of control: higher = more viable cells (more ATP)
Hit rule: 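Called active when intracellular GFP, relative to negative control, is at or above 120%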
This is an unselected part of about 50,000 reagents tested. About 4,000 of them (8%) count as active. 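Mouse siRNA library applied to hamster cells; one well for each siRNA.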 Unmarked entries are inactive. Reagents against one gene are numbered here.

target | reagent no. | GFP, % of control | viability (ATP), % of control
Zdhhc6 | 1 | 89.3 | 74.1
Zdhhc6 | 2 | 96.8 | 74.1
Zdhhc6 | 3 | 56.1 | 53.8
Ankrd33 | 1 | 66.3 | 49.8
Ankrd33 | 2 | 95.9 | 32.8
Ankrd33 | 3 | 91.9 | 70.1
Lpcat2b | 1 | 73.8 | 71.1
Lpcat2b | 2 | 48.3 | 49
Lpcat2b | 3 | 124 (active) | 81.3
Rb1 | 1 | 104 | 84.8
Rb1 | 2 | 73.3 | 73.9
Rb1 | 3 | 73.3 | 81.4
Ctrb1 | 1 | 104 | 66.8
Ctrb1 | 2 | 81.4 | 40.4
Ctrb1 | 3 | 63.5 | 68.9
Odam | 1 | 76.2 | 84.9
Odam | 2 | 94.9 | 49
Odam | 3 | 68.3 | 60.9
Ubr7 | 1 | 80.9 | 75.1
Ubr7 | 2 | 84.4 | 83.8
Ubr7 | 3 | 83.9 | 100
Tprn | 1 | 74.2 | 92.7
Tprn | 2 | 84 | 95.6
Tprn | 3 | 85.9 | 95.8
Tmem220 | 1 | 124 (active) | 69.6
Tmem220 | 2 | 35.9 | 20.4
Tmem220 | 3 | 67.5 | 87.5
Tbc1d10c | 1 | 102 | 52.1
Tbc1d10c | 2 | 64.3 | 62
Tbc1d10c | 3 | 65.7 | 52.4
Spty2d1 | 1 | 108 | 120
Spty2d1 | 2 | 93.8 | 90
Spty2d1 | 3 | 95.7 | 125
Ankzf1 | 1 | 99.6 | 108
Ankzf1 | 2 | 33.8 | 33.5
Ankzf1 | 3 | 126 (active) | 92.3
Ptpn1 | 1 | 98.9 | 68.5
Ptpn1 | 2 | 108 | 72.5
Ptpn1 | 3 | 74.6 | 72.5
Angptl1 | 1 | 55.4 | 41
Angptl1 | 2 | 111 | 124
Ascc1 | 1 | 115 | 106
Ascc1 | 2 | 108 | 95.1
Ascc1 | 3 | 65.2 | 73.4
Mlf2 | 1 | 73.3 | 35.9
Mlf2 | 2 | 46.7 | 45.6
Mlf2 | 3 | 123 (active) | 56.7
Ppox | 1 | 109 | 84.7
Ppox | 2 | 71.6 | 49.9
Ppox | 3 | 127 (active) | 89.5
Pax3 | 1 | 86.5 | 82
Pax3 | 2 | 74.6 | 83.5
Pax3 | 3 | 67.5 | 48.2
Satb1 | 1 | 85.4 | 62
Satb1 | 2 | 92.7 | 71
Satb1 | 3 | 70.9 | 73.3
Ctdnep1 | 1 | 41.7 | 51.3
Ctdnep1 | 2 | 76.2 | 66.7
Ctdnep1 | 3 | 101 | 38.7
Ctr9 | 1 | 117 | 50.4
Ctr9 | 2 | 65.7 | 63.6
Ctr9 | 3 | 96.8 | 98.6
Cib2 | 1 | 86.3 | 76.3
Cib2 | 2 | 58.1 | 67.3
Cib2 | 3 | 60.3 | 66.4
Fbxl4 | 1 | 106 | 105
Fbxl4 | 2 | 68.9 | 77.1
Fbxl4 | 3 | 112 | 80.1
Zfp938 | 1 | 82.1 | 92.7
Zfp938 | 2 | 71.9 | 73.8
Zfp938 | 3 | 72.2 | 81.8
Cask | 1 | 67.2 | 49.7
Cd84 | 1 | 23.5 | 23.4
Cd84 | 2 | 87.2 | 103
Cd84 | 3 | 63.2 | 77.1
Pcnx1 | 1 | 200 (active) | 69.8
Pcnx1 | 2 | 67.7 | 77
Pcnx1 | 3 | 64.1 | 81.5
Nat1 | 1 | 64.5 | 87.2
Nat1 | 2 | 45.8 | 74.1
Nat1 | 3 | 113 | 97.3
Ankrd27 | 1 | 103 | 85.9
Ankrd27 | 2 | 70.7 | 66.6
Ankrd27 | 3 | 67.6 | 69.6

Laid out differently: 9 of the entries above
{"target": "Zdhhc6", "reagent no.": 3, "GFP, % of control": 56.1, "viability (ATP), % of control": 53.8}
{"target": "Ankrd33", "reagent no.": 1, "GFP, % of control": 66.3, "viability (ATP), % of control": 49.8}
{"target": "Ankrd33", "reagent no.": 2, "GFP, % of control": 95.9, "viability (ATP), % of control": 32.8}
{"target": "Ankrd33", "reagent no.": 3, "GFP, % of control": 91.9, "viability (ATP), % of control": 70.1}
{"target": "Lpcat2b", "reagent no.": 1, "GFP, % of control": 73.8, "viability (ATP), % of control": 71.1}
{"target": "Lpcat2b", "reagent no.": 2, "GFP, % of control": 48.3, "viability (ATP), % of control": 49}
{"target": "Lpcat2b", "reagent no.": 3, "GFP, % of control": "124 (active)", "viability (ATP), % of control": 81.3}
{"target": "Rb1", "reagent no.": 1, "GFP, % of control": 104, "viability (ATP), % of control": 84.8}
{"target": "Rb1", "reagent no.": 2, "GFP, % of control": 73.3, "viability (ATP), % of control": 73.9}
